Assay results published in US7381728B2, “Piperazine derivatives useful for the treatment of gastrointestinal disorders” (Glaxo Group Limited, priority 2004, dated 2008).
Some entries share one result that the patent states for a list of compounds.

By UniProt entry, the sequences of proteins in these tests, tags left out.
UniProt Q92847, whole entry: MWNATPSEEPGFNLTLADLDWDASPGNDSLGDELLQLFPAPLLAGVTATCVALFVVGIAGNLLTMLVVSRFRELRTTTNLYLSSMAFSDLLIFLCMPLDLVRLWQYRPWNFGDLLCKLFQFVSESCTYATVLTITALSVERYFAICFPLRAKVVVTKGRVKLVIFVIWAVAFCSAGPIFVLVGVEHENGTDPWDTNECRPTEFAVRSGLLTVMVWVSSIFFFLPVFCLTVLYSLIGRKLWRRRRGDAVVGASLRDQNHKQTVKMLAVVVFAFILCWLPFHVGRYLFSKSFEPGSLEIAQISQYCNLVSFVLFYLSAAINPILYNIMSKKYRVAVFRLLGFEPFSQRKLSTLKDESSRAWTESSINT

How the values were obtained:
Ghrelin Receptor GHS-R [1] = molecular target: T1, Ghrelin Receptor GHS-R (Homo sapiens, UniProt Q92847); experiment: GHSR Agonist BACMAM FLIPR Assay; format: cell-based; parameters: The open reading frame of GHS-R was transferred from pCDN into pFastBacmam vector; expressed in transfected cells; host or cells: HEK MSR II cells or U2OS cells transduced with human GHSR BacMam virus; conditions: HEK MSR II or U2OS cells transduced with human GHSR BACMAM virus; Fluo 4 calcium fluorescence
Ghrelin Receptor GHS-R [2] = molecular target: T1, Ghrelin Receptor GHS-R; experiment: GHS-R GTPγS functional agonist assay; format: biochemical; parameters: The open reading frame of GHS-R was transferred from pCDN into pFastBacmam vector; expressed in transfected cells; host or cells: Membranes of HEK293T cells (Lipofectamine, pCDNA3) or of HEK293F cells (BacMam co-transduction with rat Gαo); conditions: membranes of HEK293 cells transiently expressing GHS-R (protocols I and II); [35S]GTPγS SPA; read-out: activity in the GHS-R GTPγS functional agonist assays

Structure (SMILES) | EC50 (Ghrelin Receptor GHS-R [1]) [nM] | EC50 (Ghrelin Receptor GHS-R [2]) [nM]
COc1ccc(N2C[C@@H](C)N[C@@H](C)C2)cc1NS(=O)(=O)c1ccc(-c2csc3ccccc23)cc1 [Example 133, 4-(1-Benzothien-3-yl)-N-[5-(cis-3,5-dimethyl-1-piperazinyl)-2-(methyloxy)phenyl]benzenesulfonamide] | < 1000 | < 1000
COc1ccc(N2C[C@@H](C)N[C@@H](C)C2)cc1NS(=O)(=O)c1ccc(-c2cc(C)cs2)nc1 [Example 275, N-[5-(cis-3,5-Dimethyl-1-piperazinyl)-2-(methyloxy)phenyl]-6-(4-methyl-2-thienyl)-3-pyridinesulfonamide] | < 1000 | < 1000
COc1ccc(NS(=O)(=O)c2ccc3c(Cl)cccc3c2)cc1N1C[C@@H](C)N[C@@H](C)C1 [Example 47, 5-Chloro-N-[3-(cis-3,5-dimethyl-1-piperazinyl)-4-(methyloxy)phenyl]-2-naphthalenesulfonamide] | < 1000 | < 1000
COc1ccc(NS(=O)(=O)c2ccc(-c3cc(C)cs3)cc2)cc1N1C[C@@H](C)N[C@@H](C)C1 [Example 177, N-[3-(cis-3,5-Dimethyl-1-piperazinyl)-4-(methyloxy)phenyl]-4-(4-methyl-2-thienyl)benzenesulfonamide] | < 1000 | < 1000
COc1ccc(NS(=O)(=O)c2ccc(-c3ccc(F)cc3)s2)cc1N1C[C@@H](C)N[C@@H](C)C1 [Example 296, N-[3-(cis-3,5-Dimethyl-1-piperazinyl)-4-(methyloxy)phenyl]-5-(4-fluorophenyl)-2-thiophenesulfonamide] | < 1000 | < 1000
COc1ccc(N2C[C@@H](C)N[C@@H](C)C2)cc1NS(=O)(=O)c1cccc(Cl)c1Cl [Example 37, 2,3-Dichloro-N-[5-(cis-3,5-dimethyl-1-piperazinyl)-2-(methyloxy)phenyl]benzenesulfonamide] | < 1000 | < 1000
COc1ccc(NS(=O)(=O)c2ccc(-c3ccc(F)cc3C)cc2)cc1N1C[C@@H](C)N[C@@H](C)C1 [Example 140, N-[3-(cis-3,5-Dimethyl-1-piperazinyl)-4-(methyloxy)phenyl]-4′-fluoro-2′-methyl-4-biphenylsulfonamide] | < 1000 | < 1000
C[C@@H]1CN(c2ccc(F)c(NS(=O)(=O)c3ccc(-c4cccs4)cc3F)c2)C[C@H](C)N1 [Example 230, N-[5-(cis-3,5-Dimethyl-1-piperazinyl)-2-fluorophenyl]-2-fluoro-4-(2-thienyl)benzenesulfonamide] | < 1000 | < 1000
COc1ccc(N2C[C@@H](C)N[C@@H](C)C2)cc1NS(=O)(=O)c1ccc(-c2cccs2)c(C)c1 [Example 175, N-[5-(cis-3,5-Dimethyl-1-piperazinyl)-2-(methyloxy)phenyl]-3-methyl-4-(2-thienyl)benzenesulfonamide] | < 1000 | < 1000
Cc1cc(-c2cccs2)ccc1S(=O)(=O)Nc1cc(N2C[C@@H](C)N[C@@H](C)C2)ccc1F [Example 233, N-[5-(cis-3,5-Dimethyl-1-piperazinyl)-2-fluorophenyl]-2-methyl-4-(2-thienyl)benzenesulfonamide] | < 1000 | < 1000
COc1ccc(NS(=O)(=O)c2ccc(-c3cnco3)s2)cc1N1C[C@@H](C)N[C@@H](C)C1 [Example 43, N-[3-(cis-3,5-Dimethyl-1-piperazinyl)-4-(methyloxy)phenyl]-5-(1,3-oxazol-5-yl)-2-thiophenesulfonamide] | < 1000 | < 1000
COc1ccc(N2C[C@@H](C)N[C@@H](C)C2)cc1NS(=O)(=O)c1ccc(-c2ccc(C)cc2)s1 [Example 210, N-[5-(cis-3,5-Dimethyl-1-piperazinyl)-2-(methyloxy)phenyl]-5-(4-methylphenyl)-2-thiophenesulfonamide] | < 1000 | < 1000
COc1ccc(NS(=O)(=O)c2ccc(-n3cccn3)cc2)cc1N1C[C@@H](C)N[C@@H](C)C1 [Example 19, N-[3-(cis-3,5-Dimethyl-1-piperazinyl)-4-(methyloxy)phenyl]-4-(1H-pyrazol-1-yl)benzenesulfonamide] | < 1000 | < 1000
COc1ccc(N2C[C@@H](C)N[C@@H](C)C2)cc1NS(=O)(=O)c1ccc(I)cc1 [Example 34, N-[5-(cis-3,5-Dimethyl-1-piperazinyl)-2-(methyloxy)phenyl]-4-iodobenzenesulfonamide] | < 1000 | < 1000
C[C@@H]1CN(c2ccc(F)c(NS(=O)(=O)c3ccc(-c4cccs4)c(F)c3)c2)C[C@H](C)N1 [Example 235, N-[5-(cis-3,5-Dimethyl-1-piperazinyl)-2-fluorophenyl]-3-fluoro-4-(2-thienyl)benzenesulfonamide] | < 1000 | < 1000
CC(C)Oc1ccc(N2C[C@@H](C)N[C@@H](C)C2)cc1NS(=O)(=O)c1ccc(I)cc1 [Example 100, N-{5-(cis-3,5-Dimethyl-1-piperazinyl)-2-[(1-methylethyl)oxy]phenyl}-4-iodobenzenesulfonamide] | < 1000 | < 1000
COc1ccc(N2C[C@@H](C)N[C@@H](C)C2)cc1NS(=O)(=O)c1ccc(-c2cc(Cl)ccc2OC)s1 [Example 204, 5-[5-Chloro-2-(methyloxy)phenyl]-N-[5-(cis-3,5-dimethyl-1-piperazinyl)-2-(methyloxy)phenyl]-2-thiophenesulfonamide] | < 1000 | < 1000
COc1ccc(N2C[C@@H](C)N[C@@H](C)C2)cc1NS(=O)(=O)c1cccc(-c2cc(C)cs2)c1 [Example 282, N-[5-(cis-3,5-Dimethyl-1-piperazinyl)-2-(methyloxy)phenyl]-3-(4-methyl-2-thienyl)benzenesulfonamide] | < 1000 | < 1000
COc1ccc(N2C[C@@H](C)N[C@@H](C)C2)cc1NS(=O)(=O)c1sc2ccc(F)cc2c1C [Example 40, N-[5-(cis-3,5-Dimethyl-1-piperazinyl)-2-(methyloxy)phenyl]-5-fluoro-3-methyl-1-benzothiophene-2-sulfonamide] | < 1000 | < 1000
COc1ccc(N2C[C@@H](C)N[C@@H](C)C2)cc1NS(=O)(=O)c1ccc(-c2ccc(C)s2)cc1F [Example 288, N-[5-(cis-3,5-Dimethyl-1-piperazinyl)-2-(methyloxy)phenyl]-2-fluoro-4-(5-methyl-2-thienyl)benzenesulfonamide] | < 1000 | < 1000
COc1ccc(N2C[C@@H](C)N[C@@H](C)C2)cc1NS(=O)(=O)c1ccc(-c2cnccn2)cc1 [Example 270, N-[5-(cis-3,5-Dimethyl-1-piperazinyl)-2-(methyloxy)phenyl]-4-(2-pyrazinyl)benzenesulfonamide] | < 1000 | < 1000
COc1ccc(NS(=O)(=O)c2ccc(Br)c(C)c2)cc1N1C[C@@H](C)N[C@@H](C)C1 [Example 49, 4-Bromo-N-[3-(cis-3,5-dimethyl-1-piperazinyl)-4-(methyloxy)phenyl]-3-methylbenzenesulfonamide] | < 1000 | < 1000
COc1ccc(NS(=O)(=O)c2ccc(Br)s2)cc1N1C[C@@H](C)N[C@@H](C)C1 [Example 74, 5-Bromo-N-[3-(cis-3,5-dimethyl-1-piperazinyl)-4-(methyloxy)phenyl]-2-thiophenesulfonamide] | < 1000 | < 1000
COc1ccc(N2C[C@@H](C)N[C@@H](C)C2)cc1NS(=O)(=O)c1ccc(-c2csc(C)n2)s1 [Example 249, N-[5-(cis-3,5-Dimethyl-1-piperazinyl)-2-(methyloxy)phenyl]-5-(2-methyl-1,3-thiazol-4-yl)-2-thiophenesulfonamide] | < 1000 | < 1000
COc1ccc(N2C[C@@H](C)N[C@@H](C)C2)cc1NS(=O)(=O)c1ccc(-c2ccc(C)s2)s1 [Example 241, N-[5-(cis-3,5-Dimethyl-1-piperazinyl)-2-(methyloxy)phenyl]-5′-methyl-2,2′-bithiophene-5-sulfonamide] | < 1000 | < 1000
COc1ccc(N2CCN[C@H](C)C2)cc1NS(=O)(=O)c1ccc(-c2cccs2)cc1 [Example 312, N-{2-(Methyloxy)-5-[(3R)-3-methyl-1-piperazinyl]phenyl}-4-(2-thienyl)benzenesulfonamide] | < 1000 | < 1000
COc1ccc(N2C[C@@H](C)N[C@@H](C)C2)cc1NS(=O)(=O)c1ccc(Cl)c2ccccc12 [Example 75, 4-Chloro-N-[5-(cis-3,5-dimethyl-1-piperazinyl)-2-(methyloxy)phenyl]-1-naphthalenesulfonamide] | < 1000 | < 1000
COc1ccc(N2C[C@@H](C)N[C@@H](C)C2)cc1NS(=O)(=O)c1ccc(-c2cc(C)cs2)cc1F [Example 110, N-[5-(cis-3,5-Dimethyl-1-piperazinyl)-2-(methyloxy)phenyl]-2-fluoro-4-(4-methyl-2-thienyl)benzenesulfonamide] | < 1000 | < 1000
COc1ccc(N2C[C@@H](C)N[C@@H](C)C2)cc1NS(=O)(=O)c1ccc(-c2ccc(F)c(F)c2)cc1 [Example 298, N-[5-(cis-3,5-Dimethyl-1-piperazinyl)-2-(methyloxy)phenyl]-3′,4′-difluoro-4-biphenylsulfonamide] | < 1000 | < 1000
